“Also recorded” adds a separate entry of the source.
Tested on: NIH3T3-T24 3DTMs
Assay: Drug penetration into 3DTMs (fluorescence microscopy)
Assay type: cell-based, human, murine
Settings: 24 hours

In the case of O=C1c2c(O)ccc(O)c2C(=O)c2c(NCCNCCO)ccc(NCCNCCO)c21 [mitoxantrone], the “drug penetration into 3DTM” value is reported as “permeation throughout; also recorded: complete penetration”.

Source: patent US20200165572A1, “ENGINEERED SUBSTRATES FOR HIGH-THROUGHPUT GENERATION OF 3D MODELS OF TUMOR DORMANCY, RELAPSE AND MICROMETASTASES FOR PHENOTYPE SPECIFIC DRUG DISCOVERY AND DEVELOPMENT” (Arizona Board of Regents on behalf of Arizona State …, priority 2015, published 2020)
